In US9211294B2, “Phenothiazine compounds for treating mild cognitive impairment” (WisTa Laboratories Ltd., priority 2007, dated 2015):
Structures can show the parent of a compound that is named as a salt.

Test system: scopolamine-treated NMRI mice
Experiment: Morris water maze spatial reference memory task, reversal of scopolamine-induced cognitive deficits
Format: in vivo
Details: mg/kg i.p.
Experimental: Female, NMRI mice aged 3-4 months were from Harlan, UK.
Mice were group housed (7-9 per cage) and maintained with light from 7 am-7 pm and experiments carried out in the light phase. […] They were separated into 6 groups to receive drug administrations as follows:
The injection volume for drugs was 0.2 ml per 30 g animal weight and they were injected intraperitoneally. The doses were as indicated above.
The water maze consisted of a water-filled pool (1.5 m diameter; 20±2° C.) in which a platform submerged 1 cm below water surface was the only means of escape. Mice were released from 4 cardinal sites (South, West, North and East) facing the wall of the pool in random fashion and thus had to acquire spatial knowledge of the exact platform location by spatial mapping procedures using distal cues.
Each animal was given 6 trials/day and was allowed to swim for a maximum time of 60 seconds and stay 30 seconds on the platform. […] An inter-trial interval of 10-20 minutes was given. The animals were trained for 4 consecutive days and received probe trials (free swim for 60 seconds without platform in the pool) approximately 1.5 and 24 hours post-training to test short and long-term memory, respectively. The behaviour of animals was recorded via an overhead camera and data transmitted to the PC for online storage and analysis (EthoVision basic version 3.0.8. Noldus Information Technology, Netherlands).
Probe trial data were analysed by one-way ANOVA and the appropriate post-hoc tests (Bonferroni's multiple comparison test or Newman Keuls) were carried out to determine the source of a significant main effect or interaction. Analyses were performed two-tailed and the null hypothesis was […] at probability levels of 5% (p<0.05). Only terms for reliable differences are mentioned in the text for simplicity.

CCN(C)C(=O)Oc1cccc([C@H](C)N(C)C)c1 [rivastigmine, rivastigmine tartrate]
Swim speed (scopolamine (0.5) then Rivast (0.1)): significantly differed from controls | Swim speed (scopolamine (0.5) then Rivast (0.1), listed as Rivast): ↑ | Swim speed (scopolamine (0.5) then Rivast (0.5)): speed decreased over the last two training days
